In paper PMC8246263:
These are yes or no findings as the source states them, for the method shown. Binding seen in cells or lysates may run through a third protein. Some entries that bind do so weakly or less than the wild type.

Protein sequences, listed by entry. Tags and fused reporters are not part of them. Lines headed by an entry give the natural chain unless they say otherwise; changes in a name come on top. Chains listed by the source or under a name are the forms on record and can include a tag or linker. Residues count along the entry.
UniProt Q8IWY4, residues 24-988: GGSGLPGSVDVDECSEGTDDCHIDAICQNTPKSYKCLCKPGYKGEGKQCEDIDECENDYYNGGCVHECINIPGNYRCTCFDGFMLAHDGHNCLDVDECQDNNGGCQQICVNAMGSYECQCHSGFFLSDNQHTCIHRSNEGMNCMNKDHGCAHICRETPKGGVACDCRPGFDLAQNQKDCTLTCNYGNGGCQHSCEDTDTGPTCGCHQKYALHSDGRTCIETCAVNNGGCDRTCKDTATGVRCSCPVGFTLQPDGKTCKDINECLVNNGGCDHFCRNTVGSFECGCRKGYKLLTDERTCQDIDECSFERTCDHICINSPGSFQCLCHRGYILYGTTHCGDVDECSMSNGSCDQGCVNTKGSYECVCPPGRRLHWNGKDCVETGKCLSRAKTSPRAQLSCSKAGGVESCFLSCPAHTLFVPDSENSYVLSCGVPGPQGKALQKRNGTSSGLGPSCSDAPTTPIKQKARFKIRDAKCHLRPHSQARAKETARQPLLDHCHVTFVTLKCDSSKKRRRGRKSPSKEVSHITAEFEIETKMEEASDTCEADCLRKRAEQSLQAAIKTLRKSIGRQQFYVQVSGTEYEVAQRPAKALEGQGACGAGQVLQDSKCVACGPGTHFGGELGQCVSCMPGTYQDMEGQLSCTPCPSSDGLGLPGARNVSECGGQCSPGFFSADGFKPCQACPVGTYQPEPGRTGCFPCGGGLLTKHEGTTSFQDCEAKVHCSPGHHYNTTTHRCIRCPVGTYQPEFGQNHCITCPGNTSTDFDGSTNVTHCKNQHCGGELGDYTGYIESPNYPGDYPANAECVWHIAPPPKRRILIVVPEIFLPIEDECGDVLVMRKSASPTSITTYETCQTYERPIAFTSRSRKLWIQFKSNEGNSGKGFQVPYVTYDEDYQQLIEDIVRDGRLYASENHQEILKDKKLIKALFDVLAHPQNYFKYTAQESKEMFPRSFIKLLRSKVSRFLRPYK
MYC-tagged SCUBE3 wild type (Q8IX30, residues 21-993): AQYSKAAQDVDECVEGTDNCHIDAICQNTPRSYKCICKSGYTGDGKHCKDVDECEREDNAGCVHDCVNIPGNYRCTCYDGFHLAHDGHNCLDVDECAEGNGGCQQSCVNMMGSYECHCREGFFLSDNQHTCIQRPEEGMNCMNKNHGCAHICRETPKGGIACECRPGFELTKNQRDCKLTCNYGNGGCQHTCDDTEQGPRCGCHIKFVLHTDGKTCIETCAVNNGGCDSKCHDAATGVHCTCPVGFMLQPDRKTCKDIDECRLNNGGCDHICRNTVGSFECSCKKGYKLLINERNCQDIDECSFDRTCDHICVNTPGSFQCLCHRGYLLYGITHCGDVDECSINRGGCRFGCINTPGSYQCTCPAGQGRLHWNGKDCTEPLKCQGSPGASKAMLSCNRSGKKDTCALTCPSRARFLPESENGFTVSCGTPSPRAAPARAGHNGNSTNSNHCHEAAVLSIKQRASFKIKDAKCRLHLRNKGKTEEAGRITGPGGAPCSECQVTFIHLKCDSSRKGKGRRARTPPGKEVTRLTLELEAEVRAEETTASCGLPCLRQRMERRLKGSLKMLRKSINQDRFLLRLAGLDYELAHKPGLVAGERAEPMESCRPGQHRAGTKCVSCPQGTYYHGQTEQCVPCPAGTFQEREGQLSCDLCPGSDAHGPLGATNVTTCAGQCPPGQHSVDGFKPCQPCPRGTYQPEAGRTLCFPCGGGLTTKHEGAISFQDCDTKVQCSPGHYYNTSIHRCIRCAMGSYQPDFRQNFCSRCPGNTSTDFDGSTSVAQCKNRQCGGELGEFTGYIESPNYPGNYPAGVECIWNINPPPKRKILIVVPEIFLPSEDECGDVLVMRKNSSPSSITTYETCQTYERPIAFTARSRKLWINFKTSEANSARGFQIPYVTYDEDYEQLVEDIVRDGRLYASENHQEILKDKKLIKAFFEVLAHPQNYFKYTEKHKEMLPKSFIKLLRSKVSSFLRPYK
MYC-tagged SCUBE3 p.(Thr231Ala) (Q8IX30-1, form named): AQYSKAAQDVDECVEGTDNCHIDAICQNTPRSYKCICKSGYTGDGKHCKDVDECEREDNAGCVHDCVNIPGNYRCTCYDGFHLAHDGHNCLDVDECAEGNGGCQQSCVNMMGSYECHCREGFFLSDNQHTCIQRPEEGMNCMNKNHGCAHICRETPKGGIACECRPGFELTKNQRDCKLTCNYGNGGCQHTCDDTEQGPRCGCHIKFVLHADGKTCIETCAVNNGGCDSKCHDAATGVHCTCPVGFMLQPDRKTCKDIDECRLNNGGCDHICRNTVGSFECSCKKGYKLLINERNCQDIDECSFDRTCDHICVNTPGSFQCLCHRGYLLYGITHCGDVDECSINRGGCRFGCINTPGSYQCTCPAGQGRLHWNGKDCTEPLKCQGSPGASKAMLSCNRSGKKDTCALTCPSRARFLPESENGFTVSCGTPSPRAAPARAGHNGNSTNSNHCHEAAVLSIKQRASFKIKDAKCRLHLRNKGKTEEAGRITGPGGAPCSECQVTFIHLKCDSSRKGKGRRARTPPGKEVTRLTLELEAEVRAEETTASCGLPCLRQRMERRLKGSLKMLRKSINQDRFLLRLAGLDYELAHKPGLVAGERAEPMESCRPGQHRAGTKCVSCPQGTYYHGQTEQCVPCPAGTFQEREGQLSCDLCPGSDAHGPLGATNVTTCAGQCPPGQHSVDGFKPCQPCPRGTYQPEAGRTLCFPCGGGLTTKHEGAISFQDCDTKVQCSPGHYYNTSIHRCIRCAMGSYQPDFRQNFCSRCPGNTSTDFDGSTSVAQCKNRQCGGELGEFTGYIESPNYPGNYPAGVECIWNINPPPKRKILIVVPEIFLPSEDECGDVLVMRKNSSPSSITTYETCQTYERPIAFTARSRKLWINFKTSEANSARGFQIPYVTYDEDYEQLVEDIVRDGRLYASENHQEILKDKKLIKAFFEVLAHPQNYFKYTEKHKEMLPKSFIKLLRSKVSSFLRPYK

Biological target: HA-tagged SCUBE1 (human) (UniProt Q8IWY4)
Assay: co-IP; HA-SCUBE1 and MYC-SCUBE3 co-transfected into HEK-293T cells; RIPA lysate after 48 h; precipitated with HA antibody on protein A/G magnetic beads at 4°C overnight; three RIPA washes; western blot with anti-Myc and anti-HA; three replicates quantified with ImageJ

MYC-tagged SCUBE3 p.(Thr231Ala) (from UniProt Q8IX30-1 21-993)
binding: binds

MYC-tagged SCUBE3 wild type (from UniProt Q8IX30-1 21-993)
binding: binds
